Among the data in PMC8605242 are binding values, retold here.

Chains of the proteins cited; added tags and fusions are not shown. Lines headed by an entry give the natural chain unless they say otherwise; changes in a name come on top. Residues count along the entry.
UniProt I3L1U7: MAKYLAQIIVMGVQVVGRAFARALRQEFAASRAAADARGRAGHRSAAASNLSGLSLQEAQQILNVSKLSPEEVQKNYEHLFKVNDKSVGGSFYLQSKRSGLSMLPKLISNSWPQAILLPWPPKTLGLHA
UniProt Q9Y5T4, residues 69-146: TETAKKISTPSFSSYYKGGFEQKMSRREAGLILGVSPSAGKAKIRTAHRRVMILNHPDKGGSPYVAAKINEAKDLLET
UniProt Q96DA6: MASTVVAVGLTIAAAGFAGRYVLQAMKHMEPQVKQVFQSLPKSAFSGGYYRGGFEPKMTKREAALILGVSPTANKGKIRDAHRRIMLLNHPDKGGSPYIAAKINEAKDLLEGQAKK
UniProt Q99595: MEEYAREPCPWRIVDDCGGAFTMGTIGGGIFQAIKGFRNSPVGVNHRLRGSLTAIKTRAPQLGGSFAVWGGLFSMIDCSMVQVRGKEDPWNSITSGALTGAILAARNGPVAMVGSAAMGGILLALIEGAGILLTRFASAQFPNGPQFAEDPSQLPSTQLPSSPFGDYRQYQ
UniProt O60830: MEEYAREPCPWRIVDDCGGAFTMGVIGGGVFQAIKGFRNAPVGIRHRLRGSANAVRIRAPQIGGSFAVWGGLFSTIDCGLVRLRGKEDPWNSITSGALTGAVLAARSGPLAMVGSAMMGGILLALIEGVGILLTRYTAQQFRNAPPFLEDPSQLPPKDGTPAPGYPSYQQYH

In one assay the target is GST-Magmas-2 (human) (UniProt I3L1U7). The assay can be described thus: pull-down; 1 μM GST alone or GST-Magmas variants held on beads, increasing concentrations of DnaJC19J+T or DnaJC15J+T, 45 min, 24 °C; 50 mM Tris-HCl pH 7.5, 100 mM KCl, 0.2% Triton-X 100, 10% glycerol, 1 mM PMSF; blocked with 0.1% BSA; SDS-PAGE, Coomassie, densitometry; both purified.
The target of assay [1] is hexahistidine tagged Magmas-2 (human) (UniProt I3L1U7). The assay can be described thus: pull-down; hexahistidine tagged Magmas variants on Ni-NTA beads; lysate of 2 mg HEK293T mitochondria in 25 mM HEPES-KOH pH 7.5, 80 mM KCl, 5 mM EDTA, 20 mM imidazole, 10% glycerol, 1 mM PMSF, 0.5% NP-40; 12 h, 4 °C; washes with 0.25% NP-40; immunoblot; only the target purified. (Immunoblotting shows a protein as a band on a membrane.)

Assay [2] concerns the target T1, Tim23-3HA (S. cerevisiae) (UniProt P32897).
T1 sequence: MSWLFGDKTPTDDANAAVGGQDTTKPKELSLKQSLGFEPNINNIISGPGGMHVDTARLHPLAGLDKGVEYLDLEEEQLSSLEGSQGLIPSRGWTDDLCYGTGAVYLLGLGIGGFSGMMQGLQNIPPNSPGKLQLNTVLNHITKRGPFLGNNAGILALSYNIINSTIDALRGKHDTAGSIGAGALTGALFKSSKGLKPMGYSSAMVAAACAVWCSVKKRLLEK
Nature of the assay: co-IP; 2 mg yeast mitochondria from Tim23-3HA strains expressing Pam16, Magmas, Magmas-1 or Magmas-2 lysed in 25 mM Tris-HCl pH 7.5, 10% glycerol, 80 mM KCl, 5 mM EDTA, 1 mM PMSF, 1% digitonin; anti-HA antibody on protein G Sepharose, 3 h, 4 °C; washes with 0.5% digitonin; immunoblot.

No constants are given. Whether binding was seen depends on the method and setting. A result given as binding can be weak or reduced; the word gives no strength. For part of these data: In cells and extracts the contact can be indirect.

For “DnaJC15J+T (from UniProt Q9Y5T4 69-146) (domain or fragment)”, in the assay with GST-Magmas-2 (human), the binding result was “binds”. Take “DnaJC19 (endogenous) (from UniProt Q96DA6 1-116)”: the binding entry in assay [1] is listed as “binds weakly”. For “DnaJC19J+T (from UniProt Q96DA6 34-112) (domain or fragment)”, in the assay with GST-Magmas-2 (human), the binding entry is given as “binds”. As to “Magmas-2, expressed in yeast (from UniProt I3L1U7)”, in assay [2], the binding entry is recorded as “binds”. Regarding Tim17a (from UniProt Q99595 1-171), the binding result in assay [1] is reported as “binds”. Tim17b (from UniProt O60830 1-172): the binding entry in assay [1] is given as “binds weakly”.
